Laboratory results taken from PubChem BioAssay AID743255 (National Center for Advancing Translational Sciences (NCATS), 2014).
Among all 390,000 compounds or so, about 910 (0.23%) were called active. Inconclusive results, whose numbers are uncertain, are shown with a selection of clear calls. Calls come from the whole dose curve; as a rule, active = well fitted inhibition curve with a large enough effect; inconclusive = small, poorly fitted or top-dose-only effect; inactive = no such curve, though single readings can be large or run the other way. Potencies beside an inconclusive call are fits to weak or partial responses and may not hold up. Non-standard residues stand in square brackets, D forms with d. Residues, ends and D or L forms follow the SMILES beside them. pGlu = O=C1CC[CH](C(=O)O)N1

Chains of the proteins cited; added tags and fusions are not shown. Lines headed by an entry give the natural chain unless they say otherwise; changes in a name come on top.
UniProt O94782: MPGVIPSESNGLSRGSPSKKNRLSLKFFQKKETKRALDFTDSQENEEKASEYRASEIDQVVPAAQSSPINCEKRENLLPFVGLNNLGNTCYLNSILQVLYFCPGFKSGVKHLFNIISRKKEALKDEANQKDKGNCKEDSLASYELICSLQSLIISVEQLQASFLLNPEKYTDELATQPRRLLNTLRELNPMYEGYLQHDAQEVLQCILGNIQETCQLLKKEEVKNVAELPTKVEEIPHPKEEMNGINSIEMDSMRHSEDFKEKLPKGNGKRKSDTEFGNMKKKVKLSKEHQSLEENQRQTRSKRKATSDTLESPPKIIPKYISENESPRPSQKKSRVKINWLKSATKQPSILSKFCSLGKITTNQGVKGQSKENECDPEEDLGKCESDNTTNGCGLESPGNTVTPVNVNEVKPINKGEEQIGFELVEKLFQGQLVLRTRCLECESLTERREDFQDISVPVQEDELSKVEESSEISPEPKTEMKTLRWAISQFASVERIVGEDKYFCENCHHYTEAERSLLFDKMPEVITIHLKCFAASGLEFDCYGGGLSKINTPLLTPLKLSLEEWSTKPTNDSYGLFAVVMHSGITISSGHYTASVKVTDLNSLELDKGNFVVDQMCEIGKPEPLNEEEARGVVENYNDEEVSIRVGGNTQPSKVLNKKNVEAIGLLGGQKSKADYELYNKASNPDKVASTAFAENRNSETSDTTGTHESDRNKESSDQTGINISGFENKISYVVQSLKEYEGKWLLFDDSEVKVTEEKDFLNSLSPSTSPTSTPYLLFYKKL

Each compound was assayed against Ubiquitin carboxyl-terminal hydrolase 1 (Homo sapiens) (UniProt O94782) (assay: Inhibitors of USP1/UAF1: Primary Screen). Conditions: recombinant USP1/UAF1, Ub-Rhodamine cleavage fluorescence; activity change, negative = inhibition: at 57.1 µM (top of the series).
How it was run: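 In this screen, compounds sit with the deubiquitinase complex (1nM) for 15 min at room temperature before Ub-Rho is added at 150nM final. Fluorescence rise is then followed for 6 reads every 60 seconds.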
% is set by controls: 0 for no effect and ±100 for the full control effect; potency is the fitted concentration of half-maximal effect.
Note: nearly all actives have a fitted effect of over 60% in size.

Potency, inconclusive:
O=C1CNc2ccc(C(=O)N3CCN(c4ccccn4)CC3)cc2N1 6.31 µM [inhibitor, full curve, poor fit]
Oc1ccc(/C=N/Nc2ccnc3cc(Cl)ccc23)c(O)c1 50.1 µM [inhibitor, partial curve]
C#CCOCCOCCOCCNc1nc(N2CCN(C(=O)[C@H]([C@@H](C)O)n3cc(CCCCN)nn3)CC2)nc(N2CCN(C(=O)[C@H]([C@@H](C)CC)n3cc(CCCN=C(N)N)nn3)CC2)n1 50.1 µM [inhibitor, partial curve, poor fit]
CNC(=S)N(CCc1c(C)[nH]c2ccc(Cl)cc12)Cc1cccnc1 0.794 µM [inhibitor, full curve]
COc1cccc(NC(=O)CN(C)S(=O)(=O)c2cccs2)c1 39.8 µM [inhibitor, partial curve]
CCCCCCCCCCCC1=C(O)C(=O)C=C(O)C1=O 35.5 µM [inhibitor, partial curve]
COc1cccc(CNC(=O)CCc2nnc3n(CC(C)C)c(=O)c4ccccc4n23)c1 44.7 µM [inhibitor, single point]
Cc1sc2c(c1C)c(=O)n(-c1ccccc1)c(=O)n2CC(=O)c1ccc(Cl)cc1 6.31 µM [inhibitor, full curve]
Cc1ccc(/C=[N+](\[O-])c2ccc(N(C)C)cc2)c2nsnc12 17.8 µM [inhibitor, partial curve]
O=C(/C=C/c1ccco1)NC(=S)Nc1ccccc1N1CCOCC1 7.94 µM [inhibitor, full curve, poor fit]
Cn1c(CNC(=O)CSc2n[nH]c(-c3ccccc3)n2)nc2ccccc21 14.1 µM [inhibitor, partial curve, poor fit]
O=C1NC(=S)S/C1=C/c1ccc(N2CCOCC2)o1 25.1 µM [inhibitor, partial curve]
COCCN1C(=O)c2ccc(C(=O)NCc3cccnc3)cc2C1=O 25.1 µM [inhibitor, partial curve]
COc1cccc(/C=N/n2c(-c3n[nH]c4c3CCC4)n[nH]c2=S)c1OC 3.16 µM [inhibitor, full curve, poor fit]
CCOC(=O)C1CCCN(C(=O)c2c(C)nn(-c3ccc(F)cc3)c2-n2cccc2)C1 (stereo not drawn) 50.1 µM [inhibitor, partial curve, poor fit]
Cc1c(C(C)(C)O)[nH]c2ccc(C#N)cc12 44.7 µM [inhibitor, partial curve, poor fit]
Cc1ccc(S(=O)(=O)N(C)c2ccc(C(=O)NCC(c3ccccc3)N3CCCC3)cc2)cc1 (stereo not drawn) 0.112 µM [inhibitor, full curve, poor fit]
COc1cc(/C=N/NC(=S)NC2CC3CC2C2C=CCC32)ccc1O (stereo not drawn) 20 µM [inhibitor, partial curve, poor fit]
COc1ccc(S(=O)(=O)Nc2cc(Sc3ncn[nH]3)c(O)cc2C)cc1 6.31 µM [inhibitor, single point]
O=C(NCCc1ccc(Cl)cc1)C(=O)NCC(c1ccco1)S(=O)(=O)c1cccs1 (stereo not drawn) 158 µM [inhibitor, partial curve, poor fit]
Cc1[nH]n(-c2ccccc2)c(=O)c1C(C[N+](=O)[O-])c1ccc(Br)cc1 (stereo not drawn) 28.2 µM [inhibitor, partial curve]
COc1cccc(COC(=O)C(Cc2ccccc2)NC(=O)c2ccco2)c1 (stereo not drawn) 158 µM [inhibitor, partial curve, poor fit]
Oc1ccc(C[C@@H]2CNC(=S)N2CCc2cc(C(F)(F)F)cc(C(F)(F)F)c2)cc1 112 µM [inhibitor, partial curve, poor fit]
CCOc1cc(NCc2ccccc2)c2ncn(C(C)C)c2c1 44.7 µM [inhibitor, partial curve, poor fit]
CCN(CC)S(=O)(=O)c1cccc(C(=O)/C=C2/N(C)c3ccccc3C2(C)C)c1 50.1 µM [inhibitor, partial curve, poor fit]
COC1=CC(=O)OC(c2ccc(OC)cc2)C1 (stereo not drawn) 0.251 µM [inhibitor, full curve, poor fit]
COc1ccc(S(=O)(=O)Nc2cccc3c2O[C@@H](CN(C)Cc2ccc(C(=O)O)cc2)[C@@H](C)CN([C@H](C)CO)C3=O)cc1 56.2 µM [inhibitor, partial curve, poor fit]
CC(C)CC(NC(=O)C(CO)NC(=O)C1CCC(=O)N1)C(N)=O (stereo not drawn) ([pGlu]-Ser-Leu-NH2; configuration not given here) 0.251 µM [inhibitor, full curve, poor fit]
C[C@H]1CN([C@@H](C)CO)S(=O)(=O)c2ccc(Br)cc2O[C@@H]1CN(C)C(=O)Nc1ccc2c(c1)OCO2 0.316 µM [inhibitor, full curve, poor fit]
COc1ccc(-n2nc(C(=O)Nc3ccc(Br)cc3C)c3c4ccccc4n(C)c3c2=O)cc1 6.31 µM [inhibitor, single point]
COc1ccc(NC(=O)CN(C)C(=O)c2ccc(S(=O)(=O)Nc3ccccc3C)cc2)cc1 7.94 µM [inhibitor, full curve]
Cc1cc(C)cc(NS(=O)(=O)c2ccc3c(c2)OCC(C(=O)N2CCCC2)O3)c1 (stereo not drawn) 0.251 µM [inhibitor, full curve, poor fit]
Cc1ccc(CNC(=O)CSc2c3c(nc4ccc(Cl)cc24)CCCC3)cc1 3.98 µM [inhibitor, full curve, poor fit]
Nc1c(C(=O)NCc2ccc(F)cc2)c2nc3ccccc3nc2n1CCCN1CCOCC1 14.1 µM [inhibitor, partial curve]
Cc1nc(Oc2ccccc2C)c2oc3ccccc3c2n1 56.2 µM [inhibitor, partial curve, poor fit]
OC1c2cc(Cl)ccc2-c2c(Cl)cc(Cl)cc21 (stereo not drawn) 44.7 µM [inhibitor, partial curve, poor fit]
O=C(CCc1nc2ccccc2[nH]1)N1CCc2ccccc2C1 25.1 µM [inhibitor, single point]
CCCCCCCCCCCCCC(=O)O 63.1 µM [inhibitor, partial curve, poor fit]
COc1ccc2oc(=O)c(-c3csc(Nc4cccc(O)c4)n3)cc2c1 44.7 µM [inhibitor, partial curve, poor fit]
CN(C(=O)COC(=O)c1cc([N+](=O)[O-])ccc1N1CCOCC1)C1CCCCC1 0.316 µM [inhibitor, full curve, poor fit]
CC1CCCCN1C(=O)Cn1c(=O)oc2cc(S(=O)(=O)N3CCCC3)ccc21 (stereo not drawn) 0.708 µM [inhibitor, full curve, poor fit]
N#CC(=C(O)COC(=O)Cc1c[nH]c2ccccc12)c1nc2ccccc2[nH]1 8.91 µM [inhibitor, partial curve, poor fit]
COc1ccc(C2=CC(c3ccco3)n3ncnc3N2)cc1 (stereo not drawn) 31.6 µM [inhibitor, partial curve, poor fit]

Activity change, negative = inhibition, inactive:
Cc1ccc(S(=O)(=O)N2CC3(O)CN(C(=O)OC(C)C)N(C(=O)OC(C)C)CC3(OC(=O)Nc3c(C)noc3C)C2)cc1 (stereo not drawn) -17.6%
CC1=C(O)C(=O)C(C2=C(O)C(=O)C(C)=C(O)C2=O)=C(O)C1=O -16.4%
O=C(CSc1nc(-c2ccccc2)[nH]c1-c1ccccc1)Nc1ccc2c(c1)OCO2 -13.8%
Fc1ccc(Nc2nc3nonc3nc2Nc2cccc(C(F)(F)F)c2)cc1 5.27%
CCC(=O)Nc1ccc(N2CCOCC2)c(S(=O)(=O)Nc2ccc(OC)cc2)c1 -6.52%
Clc1ccc(-c2csc3ncnc(Cl)c23)cc1 -25%
O=c1[nH]c(=O)n(Cc2ccccc2)c2nc(-c3ccc(Oc4ccc(F)cc4)c([N+](=O)[O-])c3)n(CCO)c12 -12.5%
COC(=O)c1nnn(CC(=O)NC(=O)Nc2ccccc2)c1C(=O)OC -2%
Cc1cccc(C(=O)NCCNC(=O)c2cccc(C)c2)c1 -15.7%
O=C(COC(=O)c1cccc(S(=O)(=O)N2CCN(c3ccccc3)CC2)c1)NCC1CCCO1 (stereo not drawn) -8.42%
O=C(CCS(=O)(=O)c1ccccc1)Nc1nc(-c2ccccn2)cs1 5.01%
O=c1[nH]c(/C=C2\C=Nc3ccccc32)c(O)n1Cc1ccccc1F -6.31%
CCN1CCN(C(=O)c2nn(-c3ccccc3)c(=O)c3ccccc23)CC1 -10.6%
CCN(C(=O)C1CCC(CNS(=O)(=O)c2cccc3nsnc23)CC1)c1ccccc1 (stereo not drawn) -26.2%
CCCCn1c(Cc2ccccc2)n[nH]c1=S -18.8%
C=CCOc1c(Br)cc(CNc2ccc(NC(=O)C(C)C)c(OC)c2)cc1OCC -23.4%
CCc1c(C(=O)O)[nH]c2ccc(Br)cc12 -14.2%
COc1ccc2nc3oc(C(=O)Nc4cccc(C(F)(F)F)c4)cc3cc2c1 21.2%
CC(NC(=O)c1ccc(=O)oc1)c1ccccc1 (stereo not drawn) -3.59%
CCOC(=O)C1CCN(Cc2c(O)ccc3ccccc23)CC1 -5.17%

4 structures out of the list, sorted by count of non-hydrogen atoms, high to low.
Activity change, negative = inhibition, inactive:
O=C(COC(=O)c1cccc(S(=O)(=O)N2CCN(c3ccccc3)CC2)c1)NCC1CCCO1 (stereo not drawn) -8.42%
O=C(CSc1nc(-c2ccccc2)[nH]c1-c1ccccc1)Nc1ccc2c(c1)OCO2 -13.8%
Fc1ccc(Nc2nc3nonc3nc2Nc2cccc(C(F)(F)F)c2)cc1 5.27%
CCCCn1c(Cc2ccccc2)n[nH]c1=S -18.8%

Two entries drawn at random from those above, as already listed:
Activity change, negative = inhibition, inactive:
Cc1cccc(C(=O)NCCNC(=O)c2cccc(C)c2)c1 -15.7%
COC(=O)c1nnn(CC(=O)NC(=O)Nc2ccccc2)c1C(=O)OC -2%
